{"source": "PubChem BioAssay AID1259405 (NCATS, 2018)", "aim": "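Silenced genes that increase secreted GFP made by CHO cells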 (primary screen)", "cells": "Chinese hamster CHO-K1 ovary cells with stable secreted eGFP expression", "reagent": "single siRNA against mouse genes, 0.8 pmol siRNA per well (2 µl of 400 nM stock)", "duration": "3 days", "measured": "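Percent of the per-plate non-targeting control median for intracellular GFP per well by laser scanning cytometry and for cell viability by ATP luminescence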", "direction": "GFP, % of control: higher = more GFP per well, higher productivity; viability (ATP), % of control: higher = more viable cells (more ATP)", "active means": "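Called active when intracellular GFP, relative to negative control, is at or above 120%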", "note": "Here is one part, drawn at random, of about 50,000 reagents. Of all reagents, about 4,000 (8%) were called active. 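Mouse siRNA library applied to hamster cells; one well for each siRNA.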 Unmarked entries are inactive. The numbers tell different reagents against one gene apart. No sequences are given here."}
{"gene": "Plekhs1", "reagent": 1, "GFP, % of control": 102, "viability (ATP), % of control": 87.6}
{"gene": "Plekhs1", "reagent": 2, "GFP, % of control": 68.4, "viability (ATP), % of control": 64.5}
{"gene": "Plekhs1", "reagent": 3, "GFP, % of control": 80.7, "viability (ATP), % of control": 95.5}
{"gene": "C1ql2", "reagent": 1, "GFP, % of control": 83.4, "viability (ATP), % of control": 58.1}
{"gene": "C1ql2", "reagent": 2, "GFP, % of control": 75, "viability (ATP), % of control": 84.2}
{"gene": "C1ql2", "reagent": 3, "GFP, % of control": 47, "viability (ATP), % of control": 58.8}
{"gene": "Ndufv1", "reagent": 1, "GFP, % of control": 78.3, "viability (ATP), % of control": 80.8}
{"gene": "Ndufv1", "reagent": 2, "GFP, % of control": 64.4, "viability (ATP), % of control": 36.9}
{"gene": "Ndufv1", "reagent": 3, "GFP, % of control": 65.5, "viability (ATP), % of control": 86.3}
{"gene": "Lims1", "reagent": 1, "GFP, % of control": 101, "viability (ATP), % of control": 78.4}
{"gene": "Lims1", "reagent": 2, "GFP, % of control": 64.3, "viability (ATP), % of control": 64}
{"gene": "Mmp13", "reagent": 1, "GFP, % of control": 55.6, "viability (ATP), % of control": 78}
{"gene": "Mmp13", "reagent": 2, "GFP, % of control": 64.4, "viability (ATP), % of control": 84.1}
{"gene": "Pcdhb15", "reagent": 1, "GFP, % of control": 107, "viability (ATP), % of control": 101}
{"gene": "Pcdhb15", "reagent": 2, "GFP, % of control": 99.4, "viability (ATP), % of control": 80}
{"gene": "H2-Ab1", "reagent": 1, "GFP, % of control": 114, "viability (ATP), % of control": 58.8}
{"gene": "H2-Ab1", "reagent": 2, "GFP, % of control": "141 (active)", "viability (ATP), % of control": 110}
{"gene": "H2-Ab1", "reagent": 3, "GFP, % of control": 104, "viability (ATP), % of control": 70.7}
{"gene": "Tnfaip6", "reagent": 1, "GFP, % of control": 98.7, "viability (ATP), % of control": 56.7}
{"gene": "Tnfaip6", "reagent": 2, "GFP, % of control": 108, "viability (ATP), % of control": 93.4}
{"gene": "Hdac1", "reagent": 1, "GFP, % of control": 63.7, "viability (ATP), % of control": 78.3}
{"gene": "Hdac1", "reagent": 2, "GFP, % of control": 92.3, "viability (ATP), % of control": 78.9}
{"gene": "Chst3", "reagent": 1, "GFP, % of control": 89.6, "viability (ATP), % of control": 108}
{"gene": "Chst3", "reagent": 2, "GFP, % of control": 107, "viability (ATP), % of control": 114}
{"gene": "Chst3", "reagent": 3, "GFP, % of control": 108, "viability (ATP), % of control": 97.2}
{"gene": "Cd37", "reagent": 1, "GFP, % of control": 43.6, "viability (ATP), % of control": 36.8}
{"gene": "Cd37", "reagent": 2, "GFP, % of control": 91.1, "viability (ATP), % of control": 52.1}
{"gene": "Cd37", "reagent": 3, "GFP, % of control": 45.6, "viability (ATP), % of control": 57.9}
{"gene": "Vmn1r33", "reagent": 1, "GFP, % of control": 97.2, "viability (ATP), % of control": 89.5}
{"gene": "Vmn1r33", "reagent": 2, "GFP, % of control": 85.9, "viability (ATP), % of control": 93.7}
{"gene": "Vmn1r33", "reagent": 3, "GFP, % of control": 62.4, "viability (ATP), % of control": 89}
{"gene": "Epha4", "reagent": 1, "GFP, % of control": 79.9, "viability (ATP), % of control": 85.4}
{"gene": "Noxo1", "reagent": 1, "GFP, % of control": 102, "viability (ATP), % of control": 62.6}
{"gene": "Noxo1", "reagent": 2, "GFP, % of control": 61.3, "viability (ATP), % of control": 94.4}
{"gene": "Noxo1", "reagent": 3, "GFP, % of control": "155 (active)", "viability (ATP), % of control": 104}
{"gene": "Vps28", "reagent": 1, "GFP, % of control": 44, "viability (ATP), % of control": 46.8}
{"gene": "Vps28", "reagent": 2, "GFP, % of control": 83.6, "viability (ATP), % of control": 63.5}
{"gene": "Vps28", "reagent": 3, "GFP, % of control": 90.1, "viability (ATP), % of control": 91.5}
{"gene": "Clic1", "reagent": 1, "GFP, % of control": 81, "viability (ATP), % of control": 69.9}
{"gene": "Clic1", "reagent": 2, "GFP, % of control": 47.1, "viability (ATP), % of control": 80.4}
{"gene": "Clic1", "reagent": 3, "GFP, % of control": 48, "viability (ATP), % of control": 51.7}
